At least one compound was matched to its structure with a doubt left.
What was measured:
[1] = tested on: influenza virus; design: species or system Kunming mice; settings: mouse, in vivo
[2] = tested on: parainfluenza virus; design: species or system Kunming mice; settings: mouse, in vivo

COc1ccc([C@H]2OCC3C2CO[C@H]3c2ccc(O[C@@H]3OC(CO)[C@@H](O)[C@H](O)C3O)c(OC)c2)cc1OC (some centres unmarked) [Forsythin]
Lung index compared with the infection model group, in words [1]: decreased significantly | Lung index compared with the infection model group, in words [2]: decreased significantly

— patent publication US20230338454A1, “FORSYTHIA SUSPENSA COMPONENT AND OPTIONAL PANAX GINSENG COMPONENT AND THE APPLICATION” (priority 2020, published 2023)
